Results published in PMC11096176.
No constants are given. Whether binding was seen depends on the method and setting. In cells and extracts the contact can be indirect. Some entries that bind do so weakly or less than the wild type. For some of these results: Where a sequence is shown, tags or fusion partners need not be part of it.

Legend:
Flag-tagged TBX3 = biological target: T1, Flag-tagged TBX3 (UniProt O15119); experiment: co-IP; over-expressed HA-USP15 and Flag-TBX3 in HEK293T cell extracts, both directions; lysis buffer 50 mM Tris-HCl pH 7.4, 150 mM NaCl, 5 mM EDTA, 0.5% NP-40
T1 sequence: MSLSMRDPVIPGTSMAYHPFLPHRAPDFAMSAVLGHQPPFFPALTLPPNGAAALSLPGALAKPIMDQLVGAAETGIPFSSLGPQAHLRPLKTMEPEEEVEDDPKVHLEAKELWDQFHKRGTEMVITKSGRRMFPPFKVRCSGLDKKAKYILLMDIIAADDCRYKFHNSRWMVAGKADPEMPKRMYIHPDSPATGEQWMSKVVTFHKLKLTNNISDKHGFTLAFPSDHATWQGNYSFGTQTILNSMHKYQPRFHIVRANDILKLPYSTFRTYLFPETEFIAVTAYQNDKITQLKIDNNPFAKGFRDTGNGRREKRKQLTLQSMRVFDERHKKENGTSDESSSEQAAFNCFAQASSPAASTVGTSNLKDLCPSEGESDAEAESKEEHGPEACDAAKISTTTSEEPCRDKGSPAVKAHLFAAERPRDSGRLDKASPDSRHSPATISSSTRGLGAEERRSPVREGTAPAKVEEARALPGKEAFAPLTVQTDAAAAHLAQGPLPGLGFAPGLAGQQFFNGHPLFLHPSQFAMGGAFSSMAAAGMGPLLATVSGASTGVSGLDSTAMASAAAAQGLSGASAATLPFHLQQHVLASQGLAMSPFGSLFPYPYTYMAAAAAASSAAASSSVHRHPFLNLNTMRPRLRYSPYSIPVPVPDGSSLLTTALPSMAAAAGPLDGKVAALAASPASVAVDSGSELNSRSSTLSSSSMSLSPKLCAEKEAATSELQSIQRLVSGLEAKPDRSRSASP

HA-tagged USP15 = biological target: T2, HA-tagged USP15 (UniProt Q9Y4E8); experiment: as above
T2 sequence: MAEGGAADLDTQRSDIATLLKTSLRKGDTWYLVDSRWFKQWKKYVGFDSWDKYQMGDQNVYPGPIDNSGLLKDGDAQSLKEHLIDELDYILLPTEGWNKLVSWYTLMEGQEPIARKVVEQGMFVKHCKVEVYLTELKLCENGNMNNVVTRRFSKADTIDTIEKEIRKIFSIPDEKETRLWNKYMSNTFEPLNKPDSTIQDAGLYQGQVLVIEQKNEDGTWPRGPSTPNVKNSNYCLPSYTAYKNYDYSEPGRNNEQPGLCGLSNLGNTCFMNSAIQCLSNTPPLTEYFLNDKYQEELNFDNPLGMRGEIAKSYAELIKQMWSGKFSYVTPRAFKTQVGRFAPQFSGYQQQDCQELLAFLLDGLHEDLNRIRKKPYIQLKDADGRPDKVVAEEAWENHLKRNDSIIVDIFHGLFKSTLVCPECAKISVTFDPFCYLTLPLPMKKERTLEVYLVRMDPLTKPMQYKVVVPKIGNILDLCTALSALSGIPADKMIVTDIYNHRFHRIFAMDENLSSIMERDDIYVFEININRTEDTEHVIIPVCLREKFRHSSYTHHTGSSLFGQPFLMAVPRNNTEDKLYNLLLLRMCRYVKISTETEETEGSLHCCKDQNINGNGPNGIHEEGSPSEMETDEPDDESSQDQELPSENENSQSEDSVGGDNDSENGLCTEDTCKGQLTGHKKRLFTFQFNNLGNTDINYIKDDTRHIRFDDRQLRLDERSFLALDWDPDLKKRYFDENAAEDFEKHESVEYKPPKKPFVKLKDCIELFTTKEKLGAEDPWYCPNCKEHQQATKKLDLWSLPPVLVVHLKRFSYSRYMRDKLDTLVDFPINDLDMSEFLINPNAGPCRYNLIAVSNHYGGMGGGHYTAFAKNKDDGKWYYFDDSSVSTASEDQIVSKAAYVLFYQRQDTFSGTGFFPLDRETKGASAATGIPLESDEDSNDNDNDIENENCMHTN

[1] = biological target: T3, TBX3 (endogenous) (human (endogenous in K1 and 8505 C)) (UniProt O15119); experiment: proximity ligation; Duolink PLA on fixed, permeabilised K1 cells, endogenous USP15 and TBX3
T3 sequence: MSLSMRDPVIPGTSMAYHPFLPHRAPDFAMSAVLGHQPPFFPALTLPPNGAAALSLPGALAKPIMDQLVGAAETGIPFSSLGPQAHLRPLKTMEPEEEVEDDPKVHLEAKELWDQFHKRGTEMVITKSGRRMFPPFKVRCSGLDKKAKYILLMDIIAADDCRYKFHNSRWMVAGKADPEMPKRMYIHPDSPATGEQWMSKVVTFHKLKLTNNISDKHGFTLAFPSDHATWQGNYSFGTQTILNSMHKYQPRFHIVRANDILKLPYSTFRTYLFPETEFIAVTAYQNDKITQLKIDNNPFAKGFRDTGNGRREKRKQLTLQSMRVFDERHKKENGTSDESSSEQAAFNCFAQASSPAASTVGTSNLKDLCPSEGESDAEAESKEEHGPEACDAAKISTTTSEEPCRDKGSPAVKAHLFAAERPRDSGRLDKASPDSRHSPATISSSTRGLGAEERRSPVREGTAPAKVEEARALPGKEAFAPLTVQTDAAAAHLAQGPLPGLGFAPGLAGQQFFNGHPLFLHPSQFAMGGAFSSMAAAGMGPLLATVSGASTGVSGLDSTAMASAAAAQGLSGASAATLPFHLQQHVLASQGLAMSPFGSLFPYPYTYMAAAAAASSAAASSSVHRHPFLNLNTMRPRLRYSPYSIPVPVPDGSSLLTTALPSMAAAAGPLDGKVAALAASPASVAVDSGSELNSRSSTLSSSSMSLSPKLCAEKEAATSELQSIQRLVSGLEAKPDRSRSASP

[2] = biological target: T3, TBX3 (endogenous) (human (endogenous in K1 and 8505 C)); experiment: co-IP; endogenous TBX3 and USP15 in K1 and 8505 C cells; lysis buffer 50 mM Tris-HCl pH 7.4, 150 mM NaCl, 5 mM EDTA, 0.5% NP-40

B1: HA-tagged USP15 (enzyme, UniProt Q9Y4E8-2 1-952)
chain: MAEGGAADLDTQRSDIATLLKTSLRKGDTWYLVDSRWFKQWKKYVGFDSWDKYQMGDQNVYPGPIDNSGLLKDGDAQSLKEHLIDELDYILLPTEGWNKLVSWYTLMEGQEPIARKVVEQGMFVKHCKVEVYLTELKLCENGNMNNVVTRRFSKADTIDTIEKEIRKIFSIPDEKETRLWNKYMSNTFEPLNKPDSTIQDAGLYQGQVLVIEQKNEDGTWPRGPSTPNVKNSNYCLPSYTAYKNYDYSEPGRNNEQPGLCGLSNLGNTCFMNSAIQCLSNTPPLTEYFLNDKYQEELNFDNPLGMRGEIAKSYAELIKQMWSGKFSYVTPRAFKTQVGRFAPQFSGYQQQDCQELLAFLLDGLHEDLNRIRKKPYIQLKDADGRPDKVVAEEAWENHLKRNDSIIVDIFHGLFKSTLVCPECAKISVTFDPFCYLTLPLPMKKERTLEVYLVRMDPLTKPMQYKVVVPKIGNILDLCTALSALSGIPADKMIVTDIYNHRFHRIFAMDENLSSIMERDDIYVFEININRTEDTEHVIIPVCLREKFRHSSYTHHTGSSLFGQPFLMAVPRNNTEDKLYNLLLLRMCRYVKISTETEETEGSLHCCKDQNINGNGPNGIHEEGSPSEMETDEPDDESSQDQELPSENENSQSEDSVGGDNDSENGLCTEDTCKGQLTGHKKRLFTFQFNNLGNTDINYIKDDTRHIRFDDRQLRLDERSFLALDWDPDLKKRYFDENAAEDFEKHESVEYKPPKKPFVKLKDCIELFTTKEKLGAEDPWYCPNCKEHQQATKKLDLWSLPPVLVVHLKRFSYSRYMRDKLDTLVDFPINDLDMSEFLINPNAGPCRYNLIAVSNHYGGMGGGHYTAFAKNKDDGKWYYFDDSSVSTASEDQIVSKAAYVLFYQRQDTFSGTGFFPLDRETKGASAATGIPLESDEDSNDNDNDIENENCMHTN
Flag-tagged TBX3
  binding: binds

B2: Flag-tagged TBX3 (protein, UniProt O15119 1-743)
chain: MSLSMRDPVIPGTSMAYHPFLPHRAPDFAMSAVLGHQPPFFPALTLPPNGAAALSLPGALAKPIMDQLVGAAETGIPFSSLGPQAHLRPLKTMEPEEEVEDDPKVHLEAKELWDQFHKRGTEMVITKSGRRMFPPFKVRCSGLDKKAKYILLMDIIAADDCRYKFHNSRWMVAGKADPEMPKRMYIHPDSPATGEQWMSKVVTFHKLKLTNNISDKHGFTLAFPSDHATWQGNYSFGTQTILNSMHKYQPRFHIVRANDILKLPYSTFRTYLFPETEFIAVTAYQNDKITQLKIDNNPFAKGFRDTGNGRREKRKQLTLQSMRVFDERHKKENGTSDESSSEQAAFNCFAQASSPAASTVGTSNLKDLCPSEGESDAEAESKEEHGPEACDAAKISTTTSEEPCRDKGSPAVKAHLFAAERPRDSGRLDKASPDSRHSPATISSSTRGLGAEERRSPVREGTAPAKVEEARALPGKEAFAPLTVQTDAAAAHLAQGPLPGLGFAPGLAGQQFFNGHPLFLHPSQFAMGGAFSSMAAAGMGPLLATVSGASTGVSGLDSTAMASAAAAQGLSGASAATLPFHLQQHVLASQGLAMSPFGSLFPYPYTYMAAAAAASSAAASSSVHRHPFLNLNTMRPRLRYSPYSIPVPVPDGSSLLTTALPSMAAAAGPLDGKVAALAASPASVAVDSGSELNSRSSTLSSSSMSLSPKLCAEKEAATSELQSIQRLVSGLEAKPDRSRSASP
HA-tagged USP15
  binding: binds

B3: USP15 (endogenous) (enzyme, UniProt Q9Y4E8 1-981)
chain: MAEGGAADLDTQRSDIATLLKTSLRKGDTWYLVDSRWFKQWKKYVGFDSWDKYQMGDQNVYPGPIDNSGLLKDGDAQSLKEHLIDELDYILLPTEGWNKLVSWYTLMEGQEPIARKVVEQGMFVKHCKVEVYLTELKLCENGNMNNVVTRRFSKADTIDTIEKEIRKIFSIPDEKETRLWNKYMSNTFEPLNKPDSTIQDAGLYQGQVLVIEQKNEDGTWPRGPSTPKSPGASNFSTLPKISPSSLSNNYNNMNNRNVKNSNYCLPSYTAYKNYDYSEPGRNNEQPGLCGLSNLGNTCFMNSAIQCLSNTPPLTEYFLNDKYQEELNFDNPLGMRGEIAKSYAELIKQMWSGKFSYVTPRAFKTQVGRFAPQFSGYQQQDCQELLAFLLDGLHEDLNRIRKKPYIQLKDADGRPDKVVAEEAWENHLKRNDSIIVDIFHGLFKSTLVCPECAKISVTFDPFCYLTLPLPMKKERTLEVYLVRMDPLTKPMQYKVVVPKIGNILDLCTALSALSGIPADKMIVTDIYNHRFHRIFAMDENLSSIMERDDIYVFEININRTEDTEHVIIPVCLREKFRHSSYTHHTGSSLFGQPFLMAVPRNNTEDKLYNLLLLRMCRYVKISTETEETEGSLHCCKDQNINGNGPNGIHEEGSPSEMETDEPDDESSQDQELPSENENSQSEDSVGGDNDSENGLCTEDTCKGQLTGHKKRLFTFQFNNLGNTDINYIKDDTRHIRFDDRQLRLDERSFLALDWDPDLKKRYFDENAAEDFEKHESVEYKPPKKPFVKLKDCIELFTTKEKLGAEDPWYCPNCKEHQQATKKLDLWSLPPVLVVHLKRFSYSRYMRDKLDTLVDFPINDLDMSEFLINPNAGPCRYNLIAVSNHYGGMGGGHYTAFAKNKDDGKWYYFDDSSVSTASEDQIVSKAAYVLFYQRQDTFSGTGFFPLDRETKGASAATGIPLESDEDSNDNDNDIENENCMHTN
[1]
  binding: binds
[2]
  binding: binds
